The nature of the data set: RRT study: LC-MS/MS urinary proteomics, AKI after cardiac surgery, RRT vs No RRT. Details: species or system human. The following applies: patients who did vs did not require RRT/dialysis; for Up or Down: direction of urinary abundance; for Mean Fold Change: read with the Up or Down column.

B1: Endothelial protein C receptor (protein, UniProt Q9UNN8 18-238, looked up)
Endothelial protein C receptor: SQDASDGLQRLHMLQISYFRDPYHVWYQGNASLGGHLTHVLEGPDTNTTIIQLQPLQEPESWARTQSGLQSYLLQFHGLVRLVHQERTLAFPLTIRCFLGCELPPEGSRAHVFFEVAVNGSSFVSFRPERALWQADTQVTSGVVTFTLQQLNAYNRTRYELREFLEDTCVQYVQKHISAENTKGSQTSRSYTSLVLGVLVGSFIIAGVAVGIFLCTGGRRC
Turning to B1, the “Up or Down” value was “Up” and the “Mean Fold Change” value was determined as 1.695.

B2: Inter-alpha-trypsin inhibitor heavy chain H2 (protein, UniProt P19823 55-702, looked up)
Inter-alpha-trypsin inhibitor …: SLPGESEEMMEEVDQVTLYSYKVQSTITSRMATTMIQSKVVNNSPQPQNVVFDVQIPKGAFISNFSMTVDGKTFRSSIKEKTVGRALYAQARAKGKTAGLVRSSALDMENFRTEVNVLPGAKVQFELHYQEVKWRKLGSYEHRIYLQPGRLAKHLEVDVWVIEPQGLRFLHVPDTFEGHFDGVPVISKGQQKAHVSFKPTVAQQRICPNCRETAVDGELVVLYDVKREEKAGELEVFNGYFVHFFAPDNLDPIPKNILFVIDVSGSMWGVKMKQTVEAMKTILDDLRAEDHFSVIDFNQNIRTWRNDLISATKTQVADAKRYIEKIQPSGGTNINEALLRAIFILNEANNLGLLDPNSVSLIILVSDGDPTVGELKLSKIQKNVKENIQDNISLFSLGMGFDVDYDFLKRLSNENHGIAQRIYGNQDTSSQLKKFYNQVSTPLLRNVQFNYPHTSVTDVTQNNFHNYFGGSEIVVAGKFDPAKLDQIESVITATSANTQLVLETLAQMDDLQDFLSKDKHADPDFTRKLWAYLTINQLLAERSLAPTAAAKRRITRSILQMSLDHHIVTPLTSLVIENEAGDERMLADAPPQDPSCCSGALYYGSKVVPDSTPSWANPSPTPVISMLAQGSQVLESTPPPHVMRVEND
Regarding B2, the “Up or Down” value is on record as “Up”.

B3: Fibulin-1 (protein, UniProt P23142 30-703, looked up)
Fibulin-1: DVLLEACCADGHRMATHQKDCSLPYATESKECRMVQEQCCHSQLEELHCATGISLANEQDRCATPHGDNASLEATFVKRCCHCCLLGRAAQAQGQSCEYSLMVGYQCGQVFQACCVKSQETGDLDVGGLQETDKIIEVEEEQEDPYLNDRCRGGGPCKQQCRDTGDEVVCSCFVGYQLLSDGVSCEDVNECITGSHSCRLGESCINTVGSFRCQRDSSCGTGYELTEDNSCKDIDECESGIHNCLPDFICQNTLGSFRCRPKLQCKSGFIQDALGNCIDINECLSISAPCPIGHTCINTEGSYTCQKNVPNCGRGYHLNEEGTRCVDVDECAPPAEPCGKGHRCVNSPGSFRCECKTGYYFDGISRMCVDVNECQRYPGRLCGHKCENTLGSYLCSCSVGFRLSVDGRSCEDINECSSSPCSQECANVYGSYQCYCRRGYQLSDVDGVTCEDIDECALPTGGHICSYRCINIPGSFQCSCPSSGYRLAPNGRNCQDIDECVTGIHNCSINETCFNIQGGFRCLAFECPENYRRSAATLQQEKTDTVRCIKSCRPNDVTCVFDPVHTISHTVISLPTFREFTRPEEIIFLRAITPPHPASQANIIFDITEGNLRDSFDIIKRYMDGMTVGVVRQVRPIVGPFHAVLKLEMNYVVGGVVSHRNVVNVHIFVSEYWF
As for B3, the “Up or Down” value is given as “Up” and the “Mean Fold Change” value is on record as 3.52.

B4: Cadherin-13 (protein, UniProt P55290 139-693, looked up)
Cadherin-13: SIVVSPILIPENQRQPFPRDVGKVVDSDRPERSKFRLTGKGVDQEPKGIFRINENTGSVSVTRTLDREVIAVYQLFVETTDVNGKTLEGPVPLEVIVIDQNDNRPIFREGPYIGHVMEGSPTGTTVMRMTAFDADDPATDNALLRYNIRQQTPDKPSPNMFYIDPEKGDIVTVVSPALLDRETLENPKYELIIEAQDMAGLDVGLTGTATATIMIDDKNDHSPKFTKKEFQATVEEGAVGVIVNLTVEDKDDPTTGAWRAAYTIINGNPGQSFEIHTNPQTNEGMLSVVKPLDYEISAFHTLLIKVENEDPLVPDVSYGPSSTATVHITVLDVNEGPVFYPDPMMVTRQEDLSVGSVLLTVNATDPDSLQHQTIRYSVYKDPAGWLNINPINGTVDTTAVLDRESPFVDNSVYTALFLAIDSGNPPATGTGTLLITLEDVNDNAPFIYPTVAEVCDDAKNLSVVILGASDKDLHPNTDPFKFEIHKQAVPDKVWKISKINNTHALVSLLQNLNKANYNLPIMVTDSGKPPMTNITDLRVQVCSCRNSKVDCNAAG
With B4, the “Up or Down” value is “Up” and the “Mean Fold Change” value was 1.294.

B5: Complement factor H-related protein 2 (protein, UniProt P36980 19-270, looked up)
Complement factor H-related …: EAMFCDFPKINHGILYDEEKYKPFSQVPTGEVFYYSCEYNFVSPSKSFWTRITCAEEGWSPTPKCLRLCFFPFVENGHSESSGQTHLEGDTVQIICNTGYRLQNNENNISCVERGWSTPPKCRSTISAEKCGPPPPIDNGDITSFLLSVYAPGSSVEYQCQNLYQLEGNNQITCRNGQWSEPPKCLDPCVISQEIMEKYNIKLKWTNQQKLYSRTGDIVEFVCKSGYHPTKSHSFRAMCQNGKLVYPSCEEK
In the case of B5, the “Up or Down” value is “Up”.

B6: Ig alpha-2 chain C region (protein, UniProt P01877 1-391, looked up)
Immunoglobulin heavy constant …: ASPTSPKVFPLSLDSTPQDGNVVVACLVQGFFPQEPLSVTWSESGQNVTARNFPPSQDASGDLYTTSSQLTLPATQCPDGKSVTCHVKHYTNSSQDVTVPCRVPPPPPCCHPRLSLHRPALEDLLLGSEANLTCTLTGLRDASGATFTWTPSSGKSAVQGPPERDLCGCYSVSSVLPGCAQPWNHGETFTCTAAHPELKTPLTANITKSGNTFRPEVHLLPPPSEELALNELVTLTCLARGFSPKDVLVRWLQGSQELPREKYLTWASRQEPSQGTTTYAVTSILRVAAEDWKKGETFSCMVGHEALPLAFTQKTIDRMAGSCCVADWQMPPPYVVLDLPQETLEEETPGANLWPTTITFLTLFLLSLFYSTALTVTSVRGPSGKREGPQY
B6: the “Up or Down” value was “Up” and the “Mean Fold Change” value is listed as 2.589.

B7: Macrophage colony-stimulating factor 1 (protein, UniProt P09603 33-554, looked up)
Macrophage colony-stimulating …: EEVSEYCSHMIGSGHLQSLQRLIDSQMETSCQITFEFVDQEQLKDPVCYLKKAFLLVQDIMEDTMRFRDNTPNAIAIVQLQELSLRLKSCFTKDYEEHDKACVRTFYETPLQLLEKVKNVFNETKNLLDKDWNIFSKNCNNSFAECSSQDVVTKPDCNCLYPKAIPSSDPASVSPHQPLAPSMAPVAGLTWEDSEGTEGSSLLPGEQPLHTVDPGSAKQRPPRSTCQSFEPPETPVVKDSTIGGSPQPRPSVGAFNPGMEDILDSAMGTNWVPEEASGEASEIPVPQGTELSPSRPGGGSMQTEPARPSNFLSASSPLPASAKGQQPADVTGTALPRVGPVRPTGQDWNHTPQKTDHPSALLRDPPEPGSPRISSLRPQGLSNPSTLSAQPQLSRSHSSGSVLPLGELEGRRSTRDRRSPAEPEGGPASEGAARPLPRFNSVPLTDTGHERQSEGSFSPQLQESVFHLLVPSVILVLLAVGGLLFYRWRRRSHQEPQRADSPLEQPEGSPLTQDDRQVELPV
As to B7, the “Up or Down” value is recorded as “Up” and the “Mean Fold Change” value was found to be 2.168.

B8: Insulin-like growth factor-binding protein 4 (protein, UniProt P22692 22-258, looked up)
Insulin-like growth …: DEAIHCPPCSEEKLARCRPPVGCEELVREPGCGCCATCALGLGMPCGVYTPRCGSGLRCYPPRGVEKPLHTLMHGQGVCMELAEIEAIQESLQPSDKDEGDHPNNSFSPCSAHDRRCLQKHFAKIRDRSTSGGKMKVNGAPREDARPVPQGSCQSELHRALERLAASQSRTHEDLYIIPIPNCDRNGNFHPKQCHPALDGQRGKCWCVDRKTGVKLPGGLEPKGELDCHQLADSFRE
For B8, the “Up or Down” value is given as “Up”.

The record behind these values is patent US20140038203A1, “METHODS FOR DETECTING OR PREDICTING KIDNEY DISEASE” (MUSC FOUNDATION FOR RESEARCH DEVELOPMENT, priority 2012, published 2014).
